Source: the supplement of paper PMC6411743
± gives the standard deviation of the averaged measurements. The entries are a selection whose mix differs from that of the whole data set.

Sequences of proteins named here, by UniProt entry; tags and fusion partners are left off. A change or cut given only in a name is not applied to a line headed by its entry.
UniProt Q15043: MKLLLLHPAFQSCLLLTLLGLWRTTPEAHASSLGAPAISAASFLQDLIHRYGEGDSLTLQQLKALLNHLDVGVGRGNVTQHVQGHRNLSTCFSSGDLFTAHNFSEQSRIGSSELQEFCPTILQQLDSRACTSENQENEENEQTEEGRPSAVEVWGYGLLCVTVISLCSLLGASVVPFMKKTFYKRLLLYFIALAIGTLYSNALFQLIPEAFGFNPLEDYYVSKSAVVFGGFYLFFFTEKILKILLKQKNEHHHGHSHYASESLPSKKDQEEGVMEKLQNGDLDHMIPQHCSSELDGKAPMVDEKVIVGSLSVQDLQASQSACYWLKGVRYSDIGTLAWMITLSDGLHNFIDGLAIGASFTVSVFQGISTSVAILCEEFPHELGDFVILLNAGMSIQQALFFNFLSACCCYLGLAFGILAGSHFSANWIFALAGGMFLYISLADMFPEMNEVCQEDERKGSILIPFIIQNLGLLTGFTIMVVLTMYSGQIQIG
UniProt Q8NEY8: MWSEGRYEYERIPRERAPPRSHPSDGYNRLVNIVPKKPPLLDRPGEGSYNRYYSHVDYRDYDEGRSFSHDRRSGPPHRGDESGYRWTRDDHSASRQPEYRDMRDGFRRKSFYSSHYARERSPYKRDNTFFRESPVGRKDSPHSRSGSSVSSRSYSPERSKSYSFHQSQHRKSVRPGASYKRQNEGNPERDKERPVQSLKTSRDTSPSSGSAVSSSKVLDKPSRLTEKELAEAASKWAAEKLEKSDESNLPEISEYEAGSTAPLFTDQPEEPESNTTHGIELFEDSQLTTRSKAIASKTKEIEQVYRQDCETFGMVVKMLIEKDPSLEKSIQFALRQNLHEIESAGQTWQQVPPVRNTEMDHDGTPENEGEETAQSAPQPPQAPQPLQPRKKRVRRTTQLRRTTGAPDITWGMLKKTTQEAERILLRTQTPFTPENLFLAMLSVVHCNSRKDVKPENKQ
UniProt Q76FK4: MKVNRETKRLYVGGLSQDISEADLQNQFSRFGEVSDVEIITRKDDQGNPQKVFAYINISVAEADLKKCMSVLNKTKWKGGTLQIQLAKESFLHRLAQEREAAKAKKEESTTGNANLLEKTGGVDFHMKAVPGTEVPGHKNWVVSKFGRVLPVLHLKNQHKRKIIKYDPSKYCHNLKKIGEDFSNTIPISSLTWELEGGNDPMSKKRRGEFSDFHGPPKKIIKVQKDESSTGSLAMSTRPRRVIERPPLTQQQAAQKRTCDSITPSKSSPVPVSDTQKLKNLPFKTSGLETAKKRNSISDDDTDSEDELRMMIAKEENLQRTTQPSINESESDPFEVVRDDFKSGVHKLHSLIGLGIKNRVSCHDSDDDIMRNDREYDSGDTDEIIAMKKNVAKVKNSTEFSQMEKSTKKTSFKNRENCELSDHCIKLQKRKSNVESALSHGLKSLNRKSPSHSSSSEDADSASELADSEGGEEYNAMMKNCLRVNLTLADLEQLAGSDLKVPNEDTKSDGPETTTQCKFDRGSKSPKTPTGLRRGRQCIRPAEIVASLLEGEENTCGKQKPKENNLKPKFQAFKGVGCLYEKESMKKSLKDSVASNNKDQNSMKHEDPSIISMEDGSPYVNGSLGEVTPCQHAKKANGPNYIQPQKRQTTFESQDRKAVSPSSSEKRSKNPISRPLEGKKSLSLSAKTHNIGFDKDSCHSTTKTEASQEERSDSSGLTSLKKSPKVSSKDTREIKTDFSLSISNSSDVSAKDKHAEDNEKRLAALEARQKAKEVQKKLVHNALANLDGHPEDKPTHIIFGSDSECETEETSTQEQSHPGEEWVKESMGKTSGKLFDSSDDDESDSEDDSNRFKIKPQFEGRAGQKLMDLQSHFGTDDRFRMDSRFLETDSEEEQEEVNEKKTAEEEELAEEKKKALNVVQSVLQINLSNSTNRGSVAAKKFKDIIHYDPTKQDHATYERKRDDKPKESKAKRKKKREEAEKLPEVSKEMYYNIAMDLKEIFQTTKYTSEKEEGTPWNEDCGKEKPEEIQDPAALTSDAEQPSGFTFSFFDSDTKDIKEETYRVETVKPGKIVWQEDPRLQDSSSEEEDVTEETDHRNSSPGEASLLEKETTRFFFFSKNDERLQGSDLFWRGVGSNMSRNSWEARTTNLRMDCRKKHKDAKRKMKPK
UniProt P63208, whole entry: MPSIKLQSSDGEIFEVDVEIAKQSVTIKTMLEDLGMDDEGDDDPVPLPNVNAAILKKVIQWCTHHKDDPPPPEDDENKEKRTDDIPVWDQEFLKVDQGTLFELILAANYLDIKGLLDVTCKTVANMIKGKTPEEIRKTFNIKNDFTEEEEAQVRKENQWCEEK
UniProt O43292: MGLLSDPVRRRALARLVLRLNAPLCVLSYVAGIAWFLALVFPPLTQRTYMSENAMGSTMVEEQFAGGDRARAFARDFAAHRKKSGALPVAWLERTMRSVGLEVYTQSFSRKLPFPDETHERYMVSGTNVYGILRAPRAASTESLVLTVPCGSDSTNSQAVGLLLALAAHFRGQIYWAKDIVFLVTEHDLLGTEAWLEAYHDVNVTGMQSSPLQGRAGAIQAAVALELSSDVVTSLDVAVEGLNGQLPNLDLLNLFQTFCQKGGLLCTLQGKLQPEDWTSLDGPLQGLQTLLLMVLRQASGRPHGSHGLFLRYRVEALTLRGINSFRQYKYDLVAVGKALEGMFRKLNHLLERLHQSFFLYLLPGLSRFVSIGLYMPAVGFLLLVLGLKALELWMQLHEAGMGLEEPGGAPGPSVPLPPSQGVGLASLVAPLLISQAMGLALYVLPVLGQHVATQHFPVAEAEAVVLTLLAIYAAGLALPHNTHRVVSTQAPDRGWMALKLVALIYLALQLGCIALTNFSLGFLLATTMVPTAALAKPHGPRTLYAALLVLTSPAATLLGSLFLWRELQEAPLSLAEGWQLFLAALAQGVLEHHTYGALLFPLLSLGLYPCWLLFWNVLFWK
UniProt Q12912: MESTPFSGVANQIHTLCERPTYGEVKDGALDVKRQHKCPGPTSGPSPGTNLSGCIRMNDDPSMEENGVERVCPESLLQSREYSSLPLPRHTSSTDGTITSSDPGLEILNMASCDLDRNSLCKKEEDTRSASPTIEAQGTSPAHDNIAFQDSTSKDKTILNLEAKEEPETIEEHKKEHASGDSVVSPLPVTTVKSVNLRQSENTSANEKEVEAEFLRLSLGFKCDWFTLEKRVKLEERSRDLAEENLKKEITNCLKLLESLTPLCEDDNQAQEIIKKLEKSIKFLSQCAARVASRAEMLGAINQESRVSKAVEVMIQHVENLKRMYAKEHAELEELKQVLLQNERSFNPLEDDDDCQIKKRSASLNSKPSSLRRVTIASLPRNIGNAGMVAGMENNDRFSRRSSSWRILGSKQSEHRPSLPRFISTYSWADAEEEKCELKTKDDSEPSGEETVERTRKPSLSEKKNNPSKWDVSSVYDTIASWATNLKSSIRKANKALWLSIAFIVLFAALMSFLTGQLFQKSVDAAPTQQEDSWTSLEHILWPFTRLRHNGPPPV
UniProt P27695, whole entry: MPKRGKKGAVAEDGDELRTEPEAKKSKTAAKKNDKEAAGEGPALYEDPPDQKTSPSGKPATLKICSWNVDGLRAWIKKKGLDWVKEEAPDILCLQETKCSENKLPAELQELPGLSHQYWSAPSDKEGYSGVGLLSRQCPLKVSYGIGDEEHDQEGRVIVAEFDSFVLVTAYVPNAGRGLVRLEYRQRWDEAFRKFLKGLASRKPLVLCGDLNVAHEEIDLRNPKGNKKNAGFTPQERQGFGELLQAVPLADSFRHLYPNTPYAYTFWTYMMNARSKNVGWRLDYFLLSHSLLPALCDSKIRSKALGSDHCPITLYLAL
UniProt P27348: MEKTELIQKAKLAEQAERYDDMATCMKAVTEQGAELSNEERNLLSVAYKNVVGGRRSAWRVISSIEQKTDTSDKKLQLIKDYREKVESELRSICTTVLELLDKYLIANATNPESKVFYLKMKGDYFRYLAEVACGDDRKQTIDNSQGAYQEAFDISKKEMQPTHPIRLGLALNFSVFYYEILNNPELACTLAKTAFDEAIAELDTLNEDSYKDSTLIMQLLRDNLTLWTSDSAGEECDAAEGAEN
UniProt Q9UJ41, whole entry: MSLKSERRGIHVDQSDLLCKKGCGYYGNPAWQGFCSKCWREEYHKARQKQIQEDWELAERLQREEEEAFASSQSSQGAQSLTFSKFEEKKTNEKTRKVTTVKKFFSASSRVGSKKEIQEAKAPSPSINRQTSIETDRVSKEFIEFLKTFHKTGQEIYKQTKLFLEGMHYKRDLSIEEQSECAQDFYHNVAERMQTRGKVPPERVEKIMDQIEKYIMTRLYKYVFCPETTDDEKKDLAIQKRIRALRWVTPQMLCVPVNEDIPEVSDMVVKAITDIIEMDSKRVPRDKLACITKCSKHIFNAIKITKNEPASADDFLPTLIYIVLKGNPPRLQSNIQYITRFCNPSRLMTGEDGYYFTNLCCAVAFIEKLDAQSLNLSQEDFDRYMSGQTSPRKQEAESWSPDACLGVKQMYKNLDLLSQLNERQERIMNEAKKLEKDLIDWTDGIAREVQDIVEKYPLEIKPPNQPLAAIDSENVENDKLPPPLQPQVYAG
UniProt Q9NRH2: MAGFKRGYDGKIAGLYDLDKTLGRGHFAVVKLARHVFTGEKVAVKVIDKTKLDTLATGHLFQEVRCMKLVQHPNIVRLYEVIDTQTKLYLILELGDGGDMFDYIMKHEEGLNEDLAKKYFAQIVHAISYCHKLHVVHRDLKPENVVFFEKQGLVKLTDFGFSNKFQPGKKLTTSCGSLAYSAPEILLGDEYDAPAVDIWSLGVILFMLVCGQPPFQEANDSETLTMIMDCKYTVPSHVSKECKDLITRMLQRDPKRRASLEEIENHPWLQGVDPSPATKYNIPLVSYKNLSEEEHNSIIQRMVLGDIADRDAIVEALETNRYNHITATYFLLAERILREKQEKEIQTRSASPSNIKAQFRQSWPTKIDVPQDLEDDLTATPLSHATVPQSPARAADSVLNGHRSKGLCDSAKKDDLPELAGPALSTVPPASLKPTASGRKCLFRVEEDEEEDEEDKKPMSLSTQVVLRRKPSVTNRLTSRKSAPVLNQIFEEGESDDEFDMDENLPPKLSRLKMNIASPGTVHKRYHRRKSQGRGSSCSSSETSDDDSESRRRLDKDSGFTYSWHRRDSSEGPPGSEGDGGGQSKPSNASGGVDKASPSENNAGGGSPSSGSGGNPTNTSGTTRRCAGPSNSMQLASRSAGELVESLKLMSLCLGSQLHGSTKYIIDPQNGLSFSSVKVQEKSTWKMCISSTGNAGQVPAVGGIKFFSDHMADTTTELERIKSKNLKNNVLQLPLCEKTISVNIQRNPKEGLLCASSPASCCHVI
UniProt Q9Y2E5: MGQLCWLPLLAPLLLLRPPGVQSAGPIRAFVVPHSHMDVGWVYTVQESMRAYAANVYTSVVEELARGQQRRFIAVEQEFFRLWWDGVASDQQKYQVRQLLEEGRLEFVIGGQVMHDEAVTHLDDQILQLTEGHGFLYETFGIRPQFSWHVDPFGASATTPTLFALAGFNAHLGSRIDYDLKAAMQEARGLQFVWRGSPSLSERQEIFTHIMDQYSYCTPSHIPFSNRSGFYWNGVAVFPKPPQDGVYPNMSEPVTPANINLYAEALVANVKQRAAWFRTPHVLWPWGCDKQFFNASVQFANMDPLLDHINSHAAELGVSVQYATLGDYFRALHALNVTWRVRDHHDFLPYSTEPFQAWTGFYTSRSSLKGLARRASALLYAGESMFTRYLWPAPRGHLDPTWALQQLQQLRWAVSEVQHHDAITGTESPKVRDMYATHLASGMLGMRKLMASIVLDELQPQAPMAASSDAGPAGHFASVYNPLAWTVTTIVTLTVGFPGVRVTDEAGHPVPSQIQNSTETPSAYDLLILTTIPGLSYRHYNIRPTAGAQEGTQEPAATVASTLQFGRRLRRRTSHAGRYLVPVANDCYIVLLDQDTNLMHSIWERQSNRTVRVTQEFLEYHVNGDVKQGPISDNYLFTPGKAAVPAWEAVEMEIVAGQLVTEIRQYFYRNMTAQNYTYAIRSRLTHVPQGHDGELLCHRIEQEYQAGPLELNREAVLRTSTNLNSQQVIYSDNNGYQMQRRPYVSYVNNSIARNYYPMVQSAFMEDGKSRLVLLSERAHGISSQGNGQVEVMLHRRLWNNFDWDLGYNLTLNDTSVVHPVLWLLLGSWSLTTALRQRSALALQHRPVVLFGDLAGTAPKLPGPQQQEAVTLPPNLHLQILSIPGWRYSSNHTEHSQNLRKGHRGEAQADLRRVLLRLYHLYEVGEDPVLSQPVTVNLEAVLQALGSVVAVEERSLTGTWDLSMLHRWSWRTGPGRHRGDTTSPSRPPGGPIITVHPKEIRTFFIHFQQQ
UniProt P63104: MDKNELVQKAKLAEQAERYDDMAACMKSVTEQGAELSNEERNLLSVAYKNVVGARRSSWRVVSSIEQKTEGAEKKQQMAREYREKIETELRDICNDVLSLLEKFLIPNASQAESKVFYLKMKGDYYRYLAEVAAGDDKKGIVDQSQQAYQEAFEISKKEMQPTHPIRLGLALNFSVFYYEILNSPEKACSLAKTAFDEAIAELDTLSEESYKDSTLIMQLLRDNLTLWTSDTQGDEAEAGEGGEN

Compound: Nc1ncnc2c1ncn2[C@@H]1O[C@H](COP(=O)(O)OP(=O)(O)NP(=O)(O)O)[C@@H](O)[C@H]1O [adenylyl imidodiphosphate]
Test: NP40-soluble protein abundance relative to vehicle (solubility fold change) (ratio); higher = more soluble protein in presence of AMP-PNP
Outline: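 Values are fold changes against the detergent-processed vehicle, based on vsn-normalised intensities. Jurkat crude lysate was treated at eight concentrations from 0.1 to 10 mM (10 min at room temperature, then 3 min at 37 °C), solubilised with 0.8% NP40 and benzonase, ultracentrifuged and analysed by TMT-labelled LC-MS/MS over three independent experiments.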

Row | Target | NP40-soluble protein abundance (concentration: 1mM) | NP40-soluble protein abundance (concentration: 2mM) | NP40-soluble protein abundance (concentration: 4mM) | NP40-soluble protein abundance (concentration: 6mM) | NP40-soluble protein abundance (concentration: 8mM) | NP40-soluble protein abundance (concentration: 10mM)
1 | F8WAN1 and related entries (UniProt Q69YQ0) | 1.08 ± 0.043 | 1.1 ± 0.044 | 1.09 ± 0.067 | 1.08 ± 0.034 | 1.05 ± 0.032 | 1.08 ± 0.049
2 | E5RJ40 and related entries (UniProt Q15043) | 1.02 ± 0.026 | 1.03 ± 0.019 | 0.997 ± 0.012 | 0.989 ± 0.021 | 0.979 ± 0.012 | 0.972 ± 0.018
3 | F8W9X7 and related entries (UniProt Q567U6) | 0.966 ± 0.022 | 0.991 ± 0.051 | 0.957 ± 0.028 | 0.961 ± 0.024 | 0.952 ± 0.037 | 0.99 ± 0.047
4 | F8W0Q9 and related entries (UniProt Q8NEY8) | 1 ± 0.012 | 1.06 ± 0.068 | 0.981 ± 0.013 | 0.999 ± 0.019 | 0.98 ± 0.015 | 1.04 ± 0.032
5 | F5H101 and related entries (UniProt Q76FK4) | 1.088 ± 0.0085 | 1.17 ± 0.079 | 1.16 ± 0.013 | 1.18 ± 0.055 | 1.17 ± 0.022 | 1.26 ± 0.044
6 | E9PK26 and related entries (UniProt Q9NRS6) | 0.977 ± 0.02 | 0.96 ± 0.034 | 0.998 ± 0.024 | 0.967 ± 0.028 | 1 ± 0.025 | 0.984 ± 0.029
7 | E5RJR5 and related entries (UniProt P63208) | 1 ± 0.017 | 1.07 ± 0.026 | 0.984 ± 0.032 | 0.979 ± 0.031 | 0.953 ± 0.018 | 0.962 ± 0.029
8 | F5H3X1 and related entries (UniProt Q6NXE6) | 0.959 ± 0.049 | 0.932 ± 0.017 | 0.95 ± 0.048 | 0.92 ± 0.045 | 0.899 ± 0.082 | 0.857 ± 0.07
9 | E9PPZ9 and related entries (UniProt O43292) | 0.995 ± 0.044 | 0.969 ± 0.039 | 1 ± 0.02 | 0.998 ± 0.1 | 1.01 ± 0.067 | 1.01 ± 0.047
10 | F6TLX2 and related entries (UniProt Q9HC38) | 1.01 ± 0.02 | 1.01 ± 0.014 | 0.981 ± 0.03 | 0.958 ± 0.035 | 0.938 ± 0.034 | 0.95 ± 0.047
11 | E9PGC5 and related entries (UniProt Q15262) | 1.02 ± 0.011 | 1.04 ± 0.053 | 1.02 ± 0.028 | 1.01 ± 0.015 | 0.997 ± 0.011 | 1.01 ± 0.019
12 | F8VUY8 and related entries (UniProt Q96QD8) | 1 ± 0.015 | 1.07 ± 0.091 | 1 ± 0.022 | 0.967 ± 0.022 | 0.988 ± 0.014 | 0.989 ± 0.02
13 | E9PC69 and related entries (UniProt Q7KZI7) | 1.11 ± 0.047 | 1.11 ± 0.05 | 1.11 ± 0.021 | 1.07 ± 0.052 | 1.11 ± 0.055 | 1.13 ± 0.029
14 | F2Z388 and related entries (UniProt P42766) | 1 ± 0.029 | 1.1 ± 0.11 | 0.975 ± 0.036 | 0.969 ± 0.028 | 0.81 ± 0.14 | 1.03 ± 0.099
15 | E9PDP5 and related entries (UniProt Q8IWZ3) | 1.03 ± 0.037 | 1.06 ± 0.043 | 1.05 ± 0.072 | 1.02 ± 0.051 | 0.977 ± 0.051 | 0.997 ± 0.045
16 | F8WEW6 and related entries (UniProt O76064) | 0.94 ± 0.015 | 0.983 ± 0.047 | 0.888 ± 0.016 | 0.979 ± 0.044 | 0.911 ± 0.029 | 0.941 ± 0.05
17 | F5GZ90 and related entries (UniProt Q9NZJ0) | 0.97 ± 0.019 | 0.958 ± 0.014 | 0.9829 ± 0.0072 | 0.953 ± 0.023 | 0.9414 ± 0.0028 | 0.937 ± 0.015
18 | F8W9L6 and related entries (UniProt Q12912) | 0.987 ± 0.026 | 0.997 ± 0.021 | 0.972 ± 0.017 | 0.974 ± 0.05 | 0.974 ± 0.017 | 0.9673 ± 0.0048
19 | F8WCF6 and related entries (UniProt P59998) | 0.968 ± 0.014 | 0.891 ± 0.053 | 0.917 ± 0.021 | 0.914 ± 0.02 | 0.951 ± 0.046 | 0.878 ± 0.024
20 | G3V3M6 and related entries (UniProt P27695) | 1.04 ± 0.047 | 1.13 ± 0.079 | 1.06 ± 0.02 | 1.15 ± 0.038 | 1.12 ± 0.057 | 1.16 ± 0.044
21 | F8W060 and related entries (UniProt Q9BZF1) | 0.988 ± 0.022 | 0.992 ± 0.013 | 0.9902 ± 0.0052 | 0.944 ± 0.031 | 0.934 ± 0.013 | 0.955 ± 0.013
22 | E9PG15 and related entries (UniProt P27348) | 0.984 ± 0.076 | 1.09 ± 0.13 | 0.991 ± 0.073 | 0.983 ± 0.085 | 0.973 ± 0.078 | 0.98 ± 0.12
23 | E9PBS1 and related entries (UniProt P22234) | 0.991 ± 0.025 | 0.943 ± 0.018 | 0.961 ± 0.033 | 0.981 ± 0.022 | 0.994 ± 0.011 | 0.949 ± 0.022

Single records (already shown). Values in the order: NP40-soluble protein abundance (concentration: 1mM) | NP40-soluble protein abundance (concentration: 2mM) | NP40-soluble protein abundance (concentration: 4mM) | NP40-soluble protein abundance (concentration: 6mM) | NP40-soluble protein abundance (concentration: 8mM) | NP40-soluble protein abundance (concentration: 10mM)
E9PDP5 and related entries (UniProt Q8IWZ3) reads 1.03 ± 0.037 | 1.06 ± 0.043 | 1.05 ± 0.072 | 1.02 ± 0.051 | 0.977 ± 0.051 | 0.997 ± 0.045
E9PG15 and related entries (UniProt P27348) reads 0.984 ± 0.076 | 1.09 ± 0.13 | 0.991 ± 0.073 | 0.983 ± 0.085 | 0.973 ± 0.078 | 0.98 ± 0.12

Continuation.

Row | Target | NP40-soluble protein abundance (concentration: 1mM) | NP40-soluble protein abundance (concentration: 2mM) | NP40-soluble protein abundance (concentration: 4mM) | NP40-soluble protein abundance (concentration: 6mM) | NP40-soluble protein abundance (concentration: 8mM) | NP40-soluble protein abundance (concentration: 10mM)
24 | E9PIE4 and related entries (UniProt Q9Y6C9) | 0.948 ± 0.037 | 0.884 ± 0.074 | 0.941 ± 0.021 | 0.945 ± 0.052 | 1 ± 0.027 | 0.944 ± 0.022
25 | E9PC47 and related entries (UniProt P53667) | 1 ± 0.036 | 0.992 ± 0.027 | 1.02 ± 0.043 | 0.995 ± 0.026 | 0.997 ± 0.026 | 0.974 ± 0.012
26 | E9PMH5 and related entries (UniProt Q13490) | 0.995 ± 0.014 | 0.973 ± 0.036 | 0.996 ± 0.025 | 0.978 ± 0.032 | 0.965 ± 0.028 | 0.947 ± 0.013
27 | E7EMM4 and related entries (UniProt Q13510) | 0.9804 ± 0.0097 | 1.01 ± 0.021 | 0.988 ± 0.035 | 1.01 ± 0.029 | 0.996 ± 0.033 | 0.999 ± 0.022
28 | E9PFK9 and related entries (UniProt Q9UJ41) | 1.01 ± 0.017 | 1.08 ± 0.069 | 1.04 ± 0.035 | 1.06 ± 0.059 | 1.05 ± 0.077 | 1.07 ± 0.069
29 | F8VSL3 and related entries (UniProt P25208) | 1 ± 0.046 | 1.04 ± 0.058 | 0.971 ± 0.04 | 0.976 ± 0.036 | 0.957 ± 0.056 | 0.954 ± 0.039
30 | F8VQE1 and related entries (UniProt Q9UHB6) | 1.17 ± 0.073 | 1.28 ± 0.2 | 1.33 ± 0.12 | 1.39 ± 0.18 | 1.37 ± 0.17 | 1.58 ± 0.21
31 | E9PPW7 and related entries (UniProt O00217) | 0.985 ± 0.012 | 0.9883 ± 0.0019 | 0.9592 ± 0.0053 | 0.943 ± 0.07 | 0.93 ± 0.044 | 0.927 ± 0.056
32 | F5GXF9 and related entries (UniProt P51825) | 1.034 ± 0.0066 | 1.06 ± 0.061 | 1.04 ± 0.038 | 1.06 ± 0.048 | 1.03 ± 0.057 | 1.08 ± 0.038
33 | E7EUC4 and related entries (UniProt Q9NRH2) | 1.02 ± 0.059 | 1.01 ± 0.035 | 1.01 ± 0.044 | 0.974 ± 0.059 | 0.992 ± 0.066 | 0.979 ± 0.062
34 | E9PBL8 and related entries (UniProt Q8WTW3) | 0.992 ± 0.013 | 1.09 ± 0.054 | 0.99 ± 0.04 | 0.959 ± 0.019 | 0.953 ± 0.021 | 0.949 ± 0.039
35 | E9PCD7 and related entries (UniProt Q9Y2E5) | 0.987 ± 0.0034 | 0.998 ± 0.042 | 0.9932 ± 0.0061 | 0.986 ± 0.022 | 1.01 ± 0.018 | 0.985 ± 0.026
36 | E9PHY5 and related entries (UniProt O43491) | 1.016 ± 0.0069 | 1.04 ± 0.046 | 1 ± 0.014 | 0.9862 ± 0.0021 | 0.9612 ± 0.0065 | 0.989 ± 0.027
37 | E7EX90 and related entries (UniProt Q14203) | 1 ± 0.048 | 1.02 ± 0.028 | 0.974 ± 0.043 | 0.967 ± 0.096 | 0.932 ± 0.062 | 0.957 ± 0.088
38 | E7EVZ2 and related entries (UniProt P63104) | 1.01 ± 0.029 | 1.1 ± 0.11 | 0.965 ± 0.061 | 1 ± 0.056 | 0.985 ± 0.025 | 0.957 ± 0.06
39 | F5H7T0 and related entries (UniProt Q96S38) | 0.999 ± 0.0077 | 1.02 ± 0.028 | 1.01 ± 0.034 | 0.9695 ± 0.004 | 0.991 ± 0.023 | 0.965 ± 0.046
40 | E9PLL6 and related entries (UniProt P46776) | 0.984 ± 0.086 | 0.964 ± 0.083 | 0.947 ± 0.073 | 0.948 ± 0.016 | 0.892 ± 0.039 | 1.04 ± 0.14
41 | E9PEI0 and related entries (UniProt Q69YH5) | 1 ± 0.022 | 0.958 ± 0.02 | 1 ± 0.025 | 0.998 ± 0.025 | 0.975 ± 0.037 | 1.01 ± 0.038
42 | G0XQ39 and related entries (UniProt Q13586) | 1.03 ± 0.025 | 1.07 ± 0.096 | 1 ± 0.038 | 0.983 ± 0.027 | 0.962 ± 0.026 | 0.962 ± 0.028
43 | F5H5P2 and related entries (UniProt P12694+F5H5P2) | 1.04 ± 0.076 | 1.05 ± 0.057 | 1.06 ± 0.048 | 1.04 ± 0.074 | 1.04 ± 0.074 | 1.07 ± 0.07
44 | F8WC89 (UniProt A6NKF1) | 0.817 ± 0.096 | 0.83 ± 0.074 | 0.838 ± 0.11 | 0.87 ± 0.11 | 0.909 ± 0.096 | 0.965 ± 0.11
45 | E9PIW9 and related entries (UniProt Q6SPF0) | 1.005 ± 0.01 | 1.04 ± 0.026 | 0.996 ± 0.029 | 0.976 ± 0.023 | 0.952 ± 0.023 | 0.994 ± 0.067
46 | E9PJB9 and related entries (UniProt Q9Y315) | 0.926 ± 0.051 | 0.936 ± 0.077 | 0.901 ± 0.084 | 0.963 ± 0.041 | 0.927 ± 0.052 | 0.951 ± 0.13
